Percent effect of library compounds

Mtb cholesterol medium: 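Phenotypic screen: M. tuberculosis growth, cholesterol and DPPC medium, 4 days; the read-out is not stated. Compounds at 500 µM. The record gives no direction; compounds that gave an IC50 in retests scored well above the rest, so higher reads as more growth inhibition. Of about 18,000 compounds tested this way, about 900 (5%) reached 50% or more in at least one test.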
Mtb glucose medium: 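Growth of Mycobacterium tuberculosis over 3 days (7H9 medium with glucose and tyloxapol); the read-out is not stated. Tested at 500 µM. Direction is inferred from retests: higher values go with more growth inhibition. Size under these conditions: about 18,000 compounds, about 1,400 of them at 50% or above in at least one test.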

Each number is a percent effect as filed. How 0% and 100% were set is not recorded. Most values in the screen are low, and negative values occur. This is an unselected part of the compounds tested.

structure | Mtb cholesterol medium | Mtb glucose medium
Nc1ccn(Cc2ccccc2)n1 | 19.05 | 30.35
NC1CNCCNC1 | 3.655 | -5.236
Cn1c(N)c(N2CCOC(CO)C2)c(=O)[nH]c1=O (centres undefined) | 5.07 | 12.79
N#Cc1nc(-c2ccccc2)oc1NCCCO | 34.94 | 53.16
O=C(CCC1CCNCC1)Nc1nc2c(s1)COCC2 | 5.511 | 8.31
CCSCC(=O)NCc1cccc(C(=O)NC2CC2)c1 | -7.062 | -1.263
N#Cc1ccc(CN2CCNCC2=O)cc1 | 1.822 | 11.51
CCNCc1c(C)nn(C)c1C | 7.799 | 4.517
CCn1nc(C)c(CNCC2(O)CCOCC2)c1C | 11.95 | 13.65
N#Cc1ccc(CNc2ncccc2S(N)(=O)=O)cc1 | 23.01 | 42.9
CCCS(=O)(=O)N1CCC(O)(CN2CCOCC2)CC1 | 3.55 | 21.06
Cc1nc(C2CCN(CC3CCOC3)CC2)no1 (centres undefined) | 10.09 | 2.23
Cc1ccnc(NC(=O)C2=NN(C)C(=O)CC2)c1 | -21.45 | -7.699
Cc1cnc(C(=O)N2CCOc3ccccc32)cn1 | 1.999 | 21.96
CN1CCN([C@H]2CN(Cc3ccsc3)C[C@@H]2O)CC1 | -2.366 | -6.91
CC(=O)NCCc1ccc(OC(F)F)cc1 | 44.31 | 49.62
COc1cccc(F)c1N1CCNCC1 | 7.133 | 43.84
Cc1ccnc(N2CC(C)(O)C2)n1 | 0.996 | -2.24
COc1cccc(CNCC2(C)COC2)n1 | 19.06 | 33.83
CCOC(=O)CN(C)c1ccc2nnnn2n1 | 8.615 | -0.8419
Cc1cc(Br)cc(C(=O)NC2(C(N)=O)CC2)c1 | 13.06 | 29.96
Cc1ccc(C2(O)CCN(c3nccs3)CC2)nc1 | 10.64 | 6.665
Cc1noc(CNC(=O)CCc2ccco2)n1 | 30.02 | 28.24
CC(=O)c1ccc(NCC(=O)NC(C)C(C)C)cc1 (centres undefined) | 64.89 | 58.2
COC(=O)C(NC(=O)c1ccoc1)c1ccccc1 (centres undefined) | 4.621 | 12.17
CN1CCN(C(=O)NCc2ccccc2)CC1 | 10.76 | 4.649
CN(C)c1ccccc1CN1CCCCC1CC(N)=O (centres undefined) | 2.528 | -7.999
COc1ccc(C(=O)N[C@@H]2CCNC[C@H]2O)c(C)c1 | -6.316 | 4.655
N#Cc1ccccc1CN1CCC(O)CC1 | 1.578 | 13.54
O=C(NC1COC1)c1ccc(Br)cn1 | 18.09 | 29.1
NC(=O)C1CCCN(C(=O)c2sccc2Br)C1 (centres undefined) | -26.93 | 8.048
CCOCCN1CCN(Cc2nnc(OCC)s2)CC1 | 70.56 | 14.81
CCCNC(=O)c1ccc2ncn(C)c(=O)c2c1 | -10.61 | 0.543
CCCNC(=O)CCNC(=O)c1ccc(O)cc1C | 3.326 | 11.96
CCn1nc(C)c(C(=O)N2CC[C@@H](N)[C@H](O)C2)c1C | -4.152 | 8.187
N#CC1CCN(c2ncccn2)CC1 | 6.603 | 7
O=C(Nc1cccc(CO)n1)Nc1ccccc1Cl | 36.41 | 61.65
CS(=O)(=O)N[C@@H]1COCC[C@@H]1OCC1CCC1 | -9.093 | 0.7706
CNC(=O)COc1cccc(OCC2CC2)c1 | 35.31 | 62.2
NC(=O)c1cccc2[nH]ccc12 | -0.7751 | -7.052
COCCn1cc(CNC(=O)CC2CC2)cn1 | 4.073 | 8.574
CC(=O)NCCCc1nc2ccccc2n1C | -1.438 | 7.059
CN(Cc1cc(Cl)cn1C)C(=O)c1ccc(CN)cc1 | -8.575 | -5.869
CCCN1CCN(C(=O)Nc2ccc(OC)cc2)CC1 | 24.99 | 17.95

For reference, 4 entries once more:

structure,Mtb cholesterol medium,Mtb glucose medium
NC(=O)C1CCCN(C(=O)c2sccc2Br)C1 (centres undefined),-26.93,8.048
CCNCc1c(C)nn(C)c1C,7.799,4.517
Cn1c(N)c(N2CCOC(CO)C2)c(=O)[nH]c1=O (centres undefined),5.07,12.79
NC(=O)c1cccc2[nH]ccc12,-0.7751,-7.052

Source: ChEMBL document CHEMBL3988442, “University of Dundee, Small-Polar-MMV Screening Library” (2021).